Test results: the supplement of paper PMC12819154, “High-throughput peptide-centric local stability assay extends protein–ligand identification to membrane proteins, tissues and bacteria” (Nature Structural & Molecular Biology, 2025)
Some of the results follow. Most entries show no effect beyond the scatter of the controls.

By UniProt entry, the sequences of proteins in these tests, tags left out. Where a name states a change or a piece, a line headed by the entry shows the natural chain unless it says otherwise.
UniProt Q91WK0: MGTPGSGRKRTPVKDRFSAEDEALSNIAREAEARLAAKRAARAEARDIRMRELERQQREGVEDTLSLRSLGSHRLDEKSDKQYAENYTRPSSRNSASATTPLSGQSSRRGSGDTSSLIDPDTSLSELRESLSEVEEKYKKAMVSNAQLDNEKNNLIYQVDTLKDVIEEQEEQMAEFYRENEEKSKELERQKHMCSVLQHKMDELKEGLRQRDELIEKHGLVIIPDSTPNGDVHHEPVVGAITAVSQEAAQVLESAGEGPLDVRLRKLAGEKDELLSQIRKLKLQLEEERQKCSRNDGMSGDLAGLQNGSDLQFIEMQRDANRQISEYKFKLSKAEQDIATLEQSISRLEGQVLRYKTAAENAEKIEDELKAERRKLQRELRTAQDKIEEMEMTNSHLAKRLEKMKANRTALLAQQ
UniProt Q91WU6: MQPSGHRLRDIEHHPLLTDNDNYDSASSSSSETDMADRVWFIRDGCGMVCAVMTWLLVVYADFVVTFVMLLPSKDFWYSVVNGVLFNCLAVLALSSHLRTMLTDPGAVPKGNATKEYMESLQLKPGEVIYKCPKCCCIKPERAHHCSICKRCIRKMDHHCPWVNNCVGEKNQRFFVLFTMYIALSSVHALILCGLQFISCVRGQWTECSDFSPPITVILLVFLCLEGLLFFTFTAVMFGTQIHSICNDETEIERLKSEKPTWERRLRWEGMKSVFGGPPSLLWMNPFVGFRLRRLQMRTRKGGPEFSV
UniProt Q91X88: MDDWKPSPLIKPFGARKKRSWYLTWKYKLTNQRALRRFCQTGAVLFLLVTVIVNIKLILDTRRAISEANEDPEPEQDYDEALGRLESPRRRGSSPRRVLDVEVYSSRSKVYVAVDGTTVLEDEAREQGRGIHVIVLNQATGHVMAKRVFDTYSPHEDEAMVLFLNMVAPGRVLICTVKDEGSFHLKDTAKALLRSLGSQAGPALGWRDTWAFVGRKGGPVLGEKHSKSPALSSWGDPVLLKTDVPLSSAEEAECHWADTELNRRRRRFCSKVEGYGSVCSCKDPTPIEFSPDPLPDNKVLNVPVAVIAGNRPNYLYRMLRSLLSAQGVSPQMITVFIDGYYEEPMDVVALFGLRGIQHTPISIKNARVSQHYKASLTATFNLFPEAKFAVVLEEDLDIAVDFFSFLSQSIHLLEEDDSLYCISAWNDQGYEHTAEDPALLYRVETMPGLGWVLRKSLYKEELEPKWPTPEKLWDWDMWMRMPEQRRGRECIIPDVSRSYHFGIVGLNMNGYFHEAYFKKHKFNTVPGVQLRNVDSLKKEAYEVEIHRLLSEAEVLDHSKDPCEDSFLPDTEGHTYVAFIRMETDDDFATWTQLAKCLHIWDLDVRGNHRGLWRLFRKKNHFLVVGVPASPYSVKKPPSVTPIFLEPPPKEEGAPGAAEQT
UniProt Q91VJ2: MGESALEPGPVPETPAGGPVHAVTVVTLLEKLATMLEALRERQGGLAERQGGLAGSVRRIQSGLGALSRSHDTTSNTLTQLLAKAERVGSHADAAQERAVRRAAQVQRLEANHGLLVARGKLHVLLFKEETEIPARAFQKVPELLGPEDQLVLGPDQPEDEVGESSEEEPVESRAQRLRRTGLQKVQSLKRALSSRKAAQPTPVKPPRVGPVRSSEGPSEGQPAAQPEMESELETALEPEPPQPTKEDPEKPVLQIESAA
UniProt Q91YR7: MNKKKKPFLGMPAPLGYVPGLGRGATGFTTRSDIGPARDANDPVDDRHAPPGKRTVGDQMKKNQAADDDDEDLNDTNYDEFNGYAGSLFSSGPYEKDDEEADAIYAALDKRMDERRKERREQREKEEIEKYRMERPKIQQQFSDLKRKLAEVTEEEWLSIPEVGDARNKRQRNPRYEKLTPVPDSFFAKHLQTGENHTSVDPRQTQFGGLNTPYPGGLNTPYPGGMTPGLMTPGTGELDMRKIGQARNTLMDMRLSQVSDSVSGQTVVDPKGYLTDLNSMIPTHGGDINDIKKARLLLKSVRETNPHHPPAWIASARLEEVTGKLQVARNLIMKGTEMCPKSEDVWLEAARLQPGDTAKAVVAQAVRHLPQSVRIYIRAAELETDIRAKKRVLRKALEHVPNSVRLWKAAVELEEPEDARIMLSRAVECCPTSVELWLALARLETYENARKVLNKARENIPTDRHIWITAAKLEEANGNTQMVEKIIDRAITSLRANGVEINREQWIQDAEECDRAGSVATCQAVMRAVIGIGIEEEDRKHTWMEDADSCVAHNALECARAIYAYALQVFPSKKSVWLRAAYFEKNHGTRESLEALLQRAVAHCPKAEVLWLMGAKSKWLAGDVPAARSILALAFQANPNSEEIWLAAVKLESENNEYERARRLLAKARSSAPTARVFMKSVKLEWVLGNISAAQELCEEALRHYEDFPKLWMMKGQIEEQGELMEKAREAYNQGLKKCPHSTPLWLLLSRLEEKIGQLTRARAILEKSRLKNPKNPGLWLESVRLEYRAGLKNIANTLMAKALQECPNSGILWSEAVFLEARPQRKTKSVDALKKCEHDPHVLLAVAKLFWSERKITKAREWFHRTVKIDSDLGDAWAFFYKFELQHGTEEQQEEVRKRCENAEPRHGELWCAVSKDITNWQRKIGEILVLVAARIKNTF
UniProt Q91X44: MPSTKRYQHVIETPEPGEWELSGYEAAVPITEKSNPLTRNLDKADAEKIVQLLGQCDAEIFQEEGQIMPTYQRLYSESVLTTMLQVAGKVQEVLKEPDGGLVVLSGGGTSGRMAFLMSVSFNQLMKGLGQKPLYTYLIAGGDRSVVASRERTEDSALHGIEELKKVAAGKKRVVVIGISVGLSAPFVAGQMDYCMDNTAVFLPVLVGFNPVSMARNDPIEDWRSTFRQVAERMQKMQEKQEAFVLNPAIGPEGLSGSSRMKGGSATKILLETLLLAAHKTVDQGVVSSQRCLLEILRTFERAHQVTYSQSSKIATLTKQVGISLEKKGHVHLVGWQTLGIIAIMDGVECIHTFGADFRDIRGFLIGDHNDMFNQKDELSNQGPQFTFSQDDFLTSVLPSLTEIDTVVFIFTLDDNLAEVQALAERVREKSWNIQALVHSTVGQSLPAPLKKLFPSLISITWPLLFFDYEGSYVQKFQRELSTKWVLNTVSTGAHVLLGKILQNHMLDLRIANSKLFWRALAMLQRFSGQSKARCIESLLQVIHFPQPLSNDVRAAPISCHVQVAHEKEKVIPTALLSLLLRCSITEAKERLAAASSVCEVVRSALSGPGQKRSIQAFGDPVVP
UniProt Q91W45: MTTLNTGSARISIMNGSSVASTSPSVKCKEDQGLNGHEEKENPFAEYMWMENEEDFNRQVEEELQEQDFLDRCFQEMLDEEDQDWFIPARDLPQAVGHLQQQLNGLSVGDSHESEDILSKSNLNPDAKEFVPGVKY
UniProt Q91XE9: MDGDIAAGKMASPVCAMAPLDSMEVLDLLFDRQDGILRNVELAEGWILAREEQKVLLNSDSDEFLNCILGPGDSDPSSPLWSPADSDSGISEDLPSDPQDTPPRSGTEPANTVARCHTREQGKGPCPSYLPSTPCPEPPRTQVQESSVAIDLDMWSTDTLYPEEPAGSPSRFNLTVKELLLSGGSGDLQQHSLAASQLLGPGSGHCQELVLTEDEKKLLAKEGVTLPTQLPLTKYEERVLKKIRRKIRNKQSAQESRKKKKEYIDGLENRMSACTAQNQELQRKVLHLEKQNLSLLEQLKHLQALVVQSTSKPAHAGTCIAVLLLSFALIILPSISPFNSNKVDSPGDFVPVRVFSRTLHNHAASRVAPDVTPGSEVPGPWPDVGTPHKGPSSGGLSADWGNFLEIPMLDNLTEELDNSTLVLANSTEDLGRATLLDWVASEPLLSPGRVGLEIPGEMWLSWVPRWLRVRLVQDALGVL
UniProt Q91VU6, whole entry: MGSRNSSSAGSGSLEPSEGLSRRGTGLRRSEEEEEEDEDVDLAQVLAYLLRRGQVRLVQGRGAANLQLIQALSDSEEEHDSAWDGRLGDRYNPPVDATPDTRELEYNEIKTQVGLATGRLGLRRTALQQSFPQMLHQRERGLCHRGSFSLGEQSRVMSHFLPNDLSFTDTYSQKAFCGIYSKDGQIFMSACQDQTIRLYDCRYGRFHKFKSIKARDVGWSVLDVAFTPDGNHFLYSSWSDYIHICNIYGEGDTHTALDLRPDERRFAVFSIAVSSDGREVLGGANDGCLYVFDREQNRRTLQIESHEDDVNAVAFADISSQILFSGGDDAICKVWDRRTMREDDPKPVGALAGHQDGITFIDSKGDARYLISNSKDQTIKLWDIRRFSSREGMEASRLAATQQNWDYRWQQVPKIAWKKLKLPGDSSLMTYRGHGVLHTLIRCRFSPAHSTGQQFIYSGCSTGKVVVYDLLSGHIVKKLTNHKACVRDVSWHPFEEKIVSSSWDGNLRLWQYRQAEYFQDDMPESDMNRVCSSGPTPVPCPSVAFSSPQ
UniProt Q91VY9: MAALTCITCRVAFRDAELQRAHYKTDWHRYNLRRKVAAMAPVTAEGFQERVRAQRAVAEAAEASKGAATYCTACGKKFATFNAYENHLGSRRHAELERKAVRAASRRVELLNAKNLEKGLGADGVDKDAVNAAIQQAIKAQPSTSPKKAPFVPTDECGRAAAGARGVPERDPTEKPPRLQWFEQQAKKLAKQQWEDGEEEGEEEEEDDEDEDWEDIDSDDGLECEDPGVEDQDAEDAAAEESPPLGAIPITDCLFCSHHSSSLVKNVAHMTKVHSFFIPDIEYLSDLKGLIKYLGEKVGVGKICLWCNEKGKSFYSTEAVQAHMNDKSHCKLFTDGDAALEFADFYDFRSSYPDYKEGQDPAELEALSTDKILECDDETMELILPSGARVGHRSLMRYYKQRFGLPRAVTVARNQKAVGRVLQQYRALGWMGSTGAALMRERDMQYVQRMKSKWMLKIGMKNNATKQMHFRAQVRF
UniProt Q91YK2: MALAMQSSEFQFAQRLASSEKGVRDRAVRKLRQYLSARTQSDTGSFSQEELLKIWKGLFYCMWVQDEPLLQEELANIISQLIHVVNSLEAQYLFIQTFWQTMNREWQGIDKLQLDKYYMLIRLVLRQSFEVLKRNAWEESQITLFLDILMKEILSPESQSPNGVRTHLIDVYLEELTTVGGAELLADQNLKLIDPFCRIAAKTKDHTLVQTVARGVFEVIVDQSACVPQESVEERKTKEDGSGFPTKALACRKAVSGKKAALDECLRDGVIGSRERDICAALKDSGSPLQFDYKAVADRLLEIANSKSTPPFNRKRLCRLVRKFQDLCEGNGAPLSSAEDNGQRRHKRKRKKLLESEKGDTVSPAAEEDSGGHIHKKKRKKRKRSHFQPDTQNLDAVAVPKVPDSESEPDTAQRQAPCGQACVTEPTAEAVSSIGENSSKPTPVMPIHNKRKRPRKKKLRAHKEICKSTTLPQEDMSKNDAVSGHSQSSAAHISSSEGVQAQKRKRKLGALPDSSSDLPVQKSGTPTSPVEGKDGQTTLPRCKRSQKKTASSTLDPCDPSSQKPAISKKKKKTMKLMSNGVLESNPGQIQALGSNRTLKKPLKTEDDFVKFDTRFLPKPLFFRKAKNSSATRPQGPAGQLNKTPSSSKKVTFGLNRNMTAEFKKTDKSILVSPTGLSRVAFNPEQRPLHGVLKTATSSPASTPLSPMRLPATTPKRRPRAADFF
UniProt Q91YM4: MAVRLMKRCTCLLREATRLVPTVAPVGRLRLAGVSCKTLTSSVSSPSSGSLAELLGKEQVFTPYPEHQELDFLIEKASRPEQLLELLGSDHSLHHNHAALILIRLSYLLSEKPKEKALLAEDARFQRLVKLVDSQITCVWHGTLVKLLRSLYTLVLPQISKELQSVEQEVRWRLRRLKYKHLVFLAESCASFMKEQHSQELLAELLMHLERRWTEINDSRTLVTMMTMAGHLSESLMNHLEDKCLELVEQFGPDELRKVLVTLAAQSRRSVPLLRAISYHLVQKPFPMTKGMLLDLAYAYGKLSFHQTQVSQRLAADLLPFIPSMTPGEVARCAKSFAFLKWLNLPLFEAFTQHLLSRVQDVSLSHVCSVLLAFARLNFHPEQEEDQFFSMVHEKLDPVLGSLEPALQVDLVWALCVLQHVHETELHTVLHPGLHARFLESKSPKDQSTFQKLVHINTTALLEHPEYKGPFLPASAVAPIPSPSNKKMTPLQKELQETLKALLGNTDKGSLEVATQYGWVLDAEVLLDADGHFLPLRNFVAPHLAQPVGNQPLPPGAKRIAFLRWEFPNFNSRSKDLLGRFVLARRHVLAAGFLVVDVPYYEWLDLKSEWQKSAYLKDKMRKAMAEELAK
UniProt Q91UZ5: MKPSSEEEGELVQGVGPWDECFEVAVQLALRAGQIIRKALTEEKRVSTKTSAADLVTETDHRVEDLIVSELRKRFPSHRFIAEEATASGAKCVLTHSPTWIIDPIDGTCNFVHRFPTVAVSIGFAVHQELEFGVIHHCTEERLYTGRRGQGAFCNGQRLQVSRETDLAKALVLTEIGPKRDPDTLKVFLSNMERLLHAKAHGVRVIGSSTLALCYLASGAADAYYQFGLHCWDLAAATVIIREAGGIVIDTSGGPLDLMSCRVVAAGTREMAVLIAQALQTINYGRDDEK

These targets were tested with CN[C@@H]1C[C@H]2O[C@@](C)([C@@H]1OC)n1c3ccccc3c3c4c(c5c6ccccc6n2c5c31)C(=O)NC4 [staurosporine] (assay: log2 fold change of tryptic peptide abundance, ligand vs vehicle (limited proteolysis) (log2 ratio); higher = more trypsin-susceptible (destabilized)). Conditions: ligand concentration: 20 uM; sample: mouse liver crude lysate; replicate design: treated separately.
For “UniProt Q91WK0 (peptide sequence: QRDELIEK, peptide start residue: 210)”, the log2 fold change was -0.165. “UniProt Q8VIM9 (peptide sequence: TQAEALQR, peptide start residue: 170)” showed a log2 fold change of -0.171. “UniProt Q91VE0 (peptide sequence: KIANDVFK, peptide start residue: 472)” showed a log2 fold change of 0.453. “UniProt Q91WU6 (peptide sequence: LKSEKPTWER, peptide start residue: 255)” showed a log2 fold change of 0.0581. With “UniProt Q91VN6 (peptide sequence: CALCIGGMSVK, peptide start residue: 294)” the log2 fold change was 0.551. “UniProt Q91WD1 (peptide sequence: RPAPPLTPGRLPSIR, peptide start residue: 30)” showed a log2 fold change of 0.729. For “UniProt Q91VL9 (peptide sequence: GAIMEENER, peptide start residue: 564)”, the log2 fold change was -0.318. In the case of “UniProt Q91ZH7 (peptide sequence: TLDDYYTDASPNRR, peptide start residue: 317)”, the log2 fold change is reported as 0.242. “UniProt Q91X88 (peptide sequence: MDDWKPSPLIKPFGAR, peptide start residue: 1)” gave a log2 fold change of 0.114. Target “UniProt Q91VJ2 (peptide sequence: KAAQPTPVKPPR, peptide start residue: 197)” has a log2 fold change of -0.531. In the case of “UniProt Q91V57 (peptide sequence: HFVGEKR, peptide start residue: 103)”, the log2 fold change is reported as 0.132. In the case of “UniProt Q91YR7 (peptide sequence: KIGEILVLVAAR, peptide start residue: 925)”, the log2 fold change is reported as 0.565. In the case of “UniProt Q91YY5 (peptide sequence: VENDGELK, peptide start residue: 660)”, the log2 fold change is reported as -0.274. In the case of “UniProt Q91XC0 (peptide sequence: LETTAPALSPR, peptide start residue: 121)”, the log2 fold change is reported as -0.243. “UniProt Q8VHF2 (peptide sequence: TVQAGDSPSAVR, peptide start residue: 747)” gave a log2 fold change of 0.0708. For “UniProt Q91X44 (peptide sequence: CLLEILR, peptide start residue: 291)”, the log2 fold change was -0.194. Work on “UniProt Q91W45 (peptide sequence: CKEDQGLNGHEEK, peptide start residue: 28)” yielded a log2 fold change of -0.215. “UniProt Q91XE9 (peptide sequence: KKEYIDGLENR, peptide start residue: 260)” showed a log2 fold change of -0.145. “UniProt Q91WR3 (peptide sequence: GYRPENSTAVTGGPR, peptide start residue: 693)” gave a log2 fold change of -0.303. “UniProt Q91VU6 (peptide sequence: YNPPVDATPDTR, peptide start residue: 91)” gave a log2 fold change of 0.0869. For “UniProt Q8VHR5 (peptide sequence: RKDLANLEVPHELPTK, peptide start residue: 51)”, the log2 fold change was -1.15. “UniProt Q91VY9 (peptide sequence: RVELLNAK, peptide start residue: 107)” showed a log2 fold change of 0.147. “UniProt Q8VI75 (peptide sequence: TEPQVLATLLR, peptide start residue: 978)” showed a log2 fold change of -0.375. With “UniProt Q91XD6 (peptide sequence: RWETVPVSQSLQTNK, peptide start residue: 130)” the log2 fold change was -0.311. “UniProt Q91XD2 (peptide sequence: HLCRPCHNR, peptide start residue: 116)” showed a log2 fold change of -0.593. In the case of “UniProt Q91YK2 (peptide sequence: AALDECLRDGVIGSR, peptide start residue: 260)”, the log2 fold change is reported as -0.475. In the case of “UniProt Q91VI7 (peptide sequence: ALEEERPSLR, peptide start residue: 444)”, the log2 fold change is reported as 0.182. “UniProt Q91WF0 (peptide sequence: KALTDFIQEEFQR, peptide start residue: 234)” was tested, and the log2 fold change was -0.259. With “UniProt Q91YM4 (peptide sequence: WEFPNFNSR, peptide start residue: 565)” the log2 fold change was -0.161. “UniProt Q91UZ5 (peptide sequence: VFLSNMER, peptide start residue: 187)” showed a log2 fold change of 0.163. “UniProt Q91V17 (peptide sequence: ASLADALPLHIAPR, peptide start residue: 122)” gave a log2 fold change of -0.122.
